Values quoted from earlier work in patent US8101410B2 (Entelechon GmbH, priority 2005, dated 2012).
At least one compound was matched to its structure with a doubt left.

Test system: plant cells
Settings: Table 2, range over plant species, literature; cited from earlier work

NC[C@H]1O[C@H](O[C@H]2[C@H](O)[C@@H](O[C@H]3O[C@H](CO)[C@@H](O)[C@H](N)[C@H]3O)[C@H](N)C[C@@H]2N)[C@H](O)[C@@H](O)[C@@H]1O [Kanamycin]
Selection concentration: 20 to 150 mg/L
